PubChem BioAssay AID1671190 (National Center for Advancing Translational Sciences (NCATS), 2021)
“And” between values parts separate entries of the source, which are not always exact repeats. Equal entries are not always repeated. Out of some 580,000 compounds screened, about 6,100 (1.1%) were called active. Inconclusive results, whose numbers are uncertain, are shown with a selection of clear calls. Calls follow the shape of the dose curve; as a rule, active = well fitted inhibition curve with a large enough effect; inconclusive = small, poorly fitted or top-dose-only effect, or another doubt; inactive = no such curve, though single readings can be large or run the other way. Potencies of inconclusive entries are doubtful fits and often do not repeat.
% is scaled to controls: 0 for no effect and ±100 for the full control effect; potency is read from the fitted curve at half-maximal effect.

The chains behind the UniProt entries cited, without tags or fusion partners. Where a name states a change or a piece, a line headed by the entry shows the natural chain unless it says otherwise.
UniProt P18054: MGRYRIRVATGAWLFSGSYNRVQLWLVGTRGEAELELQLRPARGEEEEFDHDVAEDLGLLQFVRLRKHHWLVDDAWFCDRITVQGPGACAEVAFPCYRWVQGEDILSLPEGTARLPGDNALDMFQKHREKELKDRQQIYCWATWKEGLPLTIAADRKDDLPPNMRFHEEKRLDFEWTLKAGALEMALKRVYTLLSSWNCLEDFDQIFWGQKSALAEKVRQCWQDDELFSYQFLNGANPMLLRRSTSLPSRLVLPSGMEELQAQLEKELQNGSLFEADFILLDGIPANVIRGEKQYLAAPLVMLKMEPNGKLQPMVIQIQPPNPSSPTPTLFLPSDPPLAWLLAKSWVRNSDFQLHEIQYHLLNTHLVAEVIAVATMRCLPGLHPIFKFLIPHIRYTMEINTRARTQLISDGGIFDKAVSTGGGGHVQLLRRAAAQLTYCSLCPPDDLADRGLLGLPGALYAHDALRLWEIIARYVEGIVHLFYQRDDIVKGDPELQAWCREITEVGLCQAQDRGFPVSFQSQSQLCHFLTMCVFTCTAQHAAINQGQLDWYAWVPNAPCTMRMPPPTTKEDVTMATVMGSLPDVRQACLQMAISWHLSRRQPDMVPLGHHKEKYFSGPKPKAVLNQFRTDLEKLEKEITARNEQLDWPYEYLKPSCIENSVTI

These compounds were tested against Polyunsaturated fatty acid lipoxygenase ALOX12 (Homo sapiens) (UniProt P18054) (assay: Primary qHTS assay for inhibitors of human arachidonate 12S-lipoxygenase (ALOX12): Round 2). Details: purified 12hLO, xylenol orange hydroperoxide absorbance; activity change, negative = inhibition: at 108 µM (top of the series) unless noted.
Summary of the method: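 Purified human 12hLO (150 nM final) in 25 mM Hepes, 0.01% Triton X-100, pH 7.0 was preincubated 15 min at room temperature with compound. Then 40 uM arachidonic acid was added, 30 min. Hydroperoxide was read by Fe-XO absorbance ratio 573/405 nm.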
In the case of `COc1ccc(CN2CCC[C@]3(N[C@H](c4ccc(OC)cc4)[C@@H]4C(=O)N(C)C(=O)[C@@H]43)C2=O)cc1`, the Potency is reported as inconclusive: 14.1 µM [inhibitor, full curve]. `Cc1ccc(S(=O)(=O)C(C#N)c2nc3ccccc3nc2NC(C)C)cc1` (stereo unspecified) was tested, and the Potency was inconclusive: 44.7 µM [inhibitor, partial curve, poor fit]. With `CCc1nc2c(c(-c3ccc(OC)cc3)n1)CCN(C(=O)c1ccccn1)CC2` the activity change, negative = inhibition was inactive: 3.44% [at 6.33 µM]. With `CSc1ccc(-c2nc3c(C)cccn3c2Nc2ccc3c(c2)OCCO3)cc1` the Potency was active: 1.41 µM. In the case of `CCc1ccc(-c2cc(C)no2)cc1S(=O)(=O)N1CCN(c2ccc(F)cc2)CC1`, the “activity change, negative = inhibition” value is reported as inactive: 0.588%. For `CC(=O)c1ccc(OCC(O)CN2CCN(CCN3C(=O)c4cccc5cccc(c45)C3=O)CC2)cc1` (stereo unspecified), the Potency was inconclusive: 50.1 µM [inhibitor, partial curve, poor fit]. `COc1cc(CN(C)C(C)C(=O)Nc2ccc([N+](=O)[O-])cc2Cl)ccc1OC(F)F` (stereo unspecified) was tested, and the Potency was inconclusive: 31.6 µM [inhibitor, full curve, poor fit]. With `NC(=S)Nc1ncc(C(F)(F)F)cc1Cl` the Potency was active: 39.8 µM. `CN1CCC(C(=O)N2Cc3ccccc3OC3(CCN(C(=O)N(C)C)CC3)C2)CC1` was tested, and the Potency was inconclusive: 15.8 µM [inhibitor, full curve, poor fit]. For `c1ccc2cc(OCCSc3nc4ccccc4o3)ccc2c1`, the “activity change, negative = inhibition” value was inactive: 2.69%. With `CC(C)N1C(=O)C2(CCCCC2)C1C(=O)NC1CC1` (stereo unspecified) the “activity change, negative = inhibition” value was inactive: 6.3%. In the case of `CC1Sc2ccc(S(=O)(=O)N3CCC(C(=O)NCc4ccco4)CC3)cc2NC1=O` (stereo unspecified), the “activity change, negative = inhibition” value is reported as inactive: -11.5%. With `O=C(NCc1c[nH]c2ncccc12)c1ccc(C(F)(F)F)cc1` the “activity change, negative = inhibition” value was inactive: -0.994% [at 176 µM]. In the case of `O=C1OC(c2ccccc2)(c2ccc(O)cc2)c2ccccc21` (stereo unspecified), the Potency is reported as inconclusive: 100 µM [inhibitor, partial curve, poor fit]. With `CC(C)CC1=NS(=O)(=O)c2cc(NC(=O)C3CCC3)ccc2N1c1ccccc1` the Potency was inconclusive: 17.8 µM [inhibitor, full curve]. With `O=C(CC1(O)C(=O)N(Cc2cccc3ccccc23)c2ccccc21)c1cccnc1` (stereo unspecified) the Potency was inconclusive: 28.2 µM [inhibitor, partial curve, poor fit]. With `Cn1c(SCC(=O)Nc2ccc(Br)cc2)nc(O)cc1=O` the Potency was inconclusive: 112 µM [inhibitor, partial curve, poor fit] and inconclusive: 89.1 µM [inhibitor, partial curve, poor fit]. `CC(Nc1ccc2c(c1)OCCCO2)c1nc2scc(-c3cccs3)c2c(=O)[nH]1` (stereo unspecified) was tested, and the Potency was inconclusive: 31.6 µM [inhibitor, partial curve, poor fit]. With `CC(=O)Nc1ccc(NC(=O)C(C)Br)cc1` (stereo unspecified) the Potency was inconclusive: 3.98 µM [inhibitor, full curve, poor fit]. In the case of `CCCCn1cnc2c(SCc3ccc([N+](=O)[O-])cc3)nc(N)nc21`, the “activity change, negative = inhibition” value is reported as inactive: -1.71%. For `Cc1cccc(/C=N/Nc2ccc(Cl)c(Cl)c2)c1`, the Potency was active: 5.62 µM. With `CN(C)c1ccc(C(CNC(=O)c2cccc(C(F)(F)F)c2)N2CCCC2)cc1` (stereo unspecified) the “activity change, negative = inhibition” value was inactive: -1.83%. `O=C(NCC1CCCO1)C(c1cccs1)N(Cc1cccs1)C(=O)Cn1nnc(-c2cccs2)n1` (stereo unspecified) was tested, and the Potency was inconclusive: 50.1 µM [inhibitor, partial curve, poor fit]. With `Cc1cnc(NC(=O)c2ccc3c(c2)OCCN(c2ccccc2)C3)s1` the “activity change, negative = inhibition” value was inactive: 63.5% [at 176 µM]. With `CCOc1ccc(NC(=O)C2CCN(S(=O)(=O)c3c(C)noc3/C=C/c3c(C)cc(C)cc3C)CC2)cc1` the “activity change, negative = inhibition” value was inactive: -20.4%. In the case of `Cc1[nH]c2ccc(C(=O)N3CCC(C(=O)NCC(C)(C)CN(C)C)CC3)cc2c1C`, the “activity change, negative = inhibition” value is reported as inactive: -28.5%. `CCOC(=O)C1=CN(Cc2cccc(F)c2)S(=O)(=O)NC1c1ccc(F)c(Cl)c1` (stereo unspecified) was tested, and the Potency was inconclusive: 79.4 µM [inhibitor, single point]. `CCS(=O)(=O)N(C1CC1)C1CCOC2(CCN(C(=O)c3ccc(OC)cc3)CC2)C1` (stereo unspecified) was tested, and the “activity change, negative = inhibition” value was inactive: 44.7%. `COc1ccc(C2Nc3cc(OC)ccc3-n3cccc32)cc1` (stereo unspecified) was tested, and the Potency was inconclusive: 50.1 µM [inhibitor, partial curve, poor fit]. With `Cc1nnc(SCC(=O)Nc2sc3c(c2C#N)CCCC3)[nH]c1=O` the Potency was inconclusive: 28.2 µM [inhibitor, partial curve, poor fit]. In the case of `O=C(O)c1ccc(NC2OC[C@@H](O)[C@H](O)[C@H]2O)cc1` (stereo partly specified), the Potency is reported as inconclusive: 35.5 µM [inhibitor, partial curve, poor fit]. For `COCC(C)N=C1NN=C(c2cc(C)n(Cc3ccccc3Cl)c2C)CS1` (stereo unspecified), the Potency was inconclusive: 79.4 µM [inhibitor, partial curve, poor fit]. For `CC(=O)Nc1ccc(NC(=O)c2cnc3ccccc3n2)cc1`, the Potency was inconclusive: 0.316 µM [inhibitor, full curve]. For `CC(=O)C[C@](N)(c1ccc(C)cc1)C(F)(F)F`, the Potency was inconclusive: 126 µM [inhibitor, single point]. `COc1ccccc1OCCSc1nnnn1-c1ccc(C)cc1` was tested, and the Potency was inconclusive: 89.1 µM [inhibitor, single point]. For `Cc1c(C(=O)c2ccc(F)cc2F)c2ccccn2c1CCC#N`, the Potency was inconclusive: 79.4 µM [inhibitor, partial curve, poor fit]. `O=c1ccsn1Cc1ccccc1` was tested, and the Potency was inconclusive: 14.1 µM [inhibitor, partial curve, poor fit]. In the case of `CC(C)CCn1cnc2c1c(=O)n(CC(=O)N1CCCc3ccccc31)c(=O)n2Cc1ccccc1`, the Potency is reported as inconclusive: 50.1 µM [inhibitor, single point]. In the case of `CC(NCCc1ccc(S(N)(=O)=O)cc1)C(=O)NCCc1ccc(F)cc1` (stereo unspecified), the Potency is reported as inconclusive: 0.355 µM [inhibitor, full curve, poor fit]. For `Cc1ccc(CNc2ncnc3c2c(-c2ccccc2)cn3-c2ccccc2)cc1`, the Potency was inconclusive: 112 µM [inhibitor, partial curve, poor fit]. In the case of `Oc1ccc(C[C@H]2CNC(=S)N2C[C@H]2CCCN2C[C@H](Cc2ccccc2)N2C[C@H](Cc3ccc(O)cc3)N(CC3CCCCCC3)C2=S)cc1`, the Potency is reported as inconclusive: 44.7 µM [inhibitor, partial curve, poor fit].
